Laboratory results as given in the supplement of paper PMC10849652.
Some of the results follow.

Amino acid sequences for entries named in this document (tags omitted). A change or cut given only in a name is not applied to a line headed by its entry.
UniProt O95757: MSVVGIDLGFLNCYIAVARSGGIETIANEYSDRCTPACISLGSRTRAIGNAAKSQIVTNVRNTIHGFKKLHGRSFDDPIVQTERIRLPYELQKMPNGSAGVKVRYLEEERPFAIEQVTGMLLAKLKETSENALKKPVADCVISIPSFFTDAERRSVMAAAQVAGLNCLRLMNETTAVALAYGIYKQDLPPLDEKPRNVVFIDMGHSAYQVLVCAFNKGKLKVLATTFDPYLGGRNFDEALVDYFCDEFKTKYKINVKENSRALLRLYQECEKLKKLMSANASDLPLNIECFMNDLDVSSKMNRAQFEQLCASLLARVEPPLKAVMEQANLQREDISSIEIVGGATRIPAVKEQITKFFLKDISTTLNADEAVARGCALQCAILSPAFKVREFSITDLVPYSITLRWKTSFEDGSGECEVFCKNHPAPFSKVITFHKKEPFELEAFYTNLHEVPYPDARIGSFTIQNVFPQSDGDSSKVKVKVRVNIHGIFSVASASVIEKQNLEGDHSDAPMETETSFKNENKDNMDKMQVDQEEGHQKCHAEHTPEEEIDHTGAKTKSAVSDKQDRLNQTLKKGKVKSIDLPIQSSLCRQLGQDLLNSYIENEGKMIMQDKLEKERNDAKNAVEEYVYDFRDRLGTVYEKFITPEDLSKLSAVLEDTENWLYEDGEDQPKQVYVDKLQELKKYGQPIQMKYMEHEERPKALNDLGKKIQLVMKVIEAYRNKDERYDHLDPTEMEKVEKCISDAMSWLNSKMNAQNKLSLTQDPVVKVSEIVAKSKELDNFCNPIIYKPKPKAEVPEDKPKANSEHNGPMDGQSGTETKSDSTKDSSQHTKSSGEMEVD
UniProt Q9NWT6: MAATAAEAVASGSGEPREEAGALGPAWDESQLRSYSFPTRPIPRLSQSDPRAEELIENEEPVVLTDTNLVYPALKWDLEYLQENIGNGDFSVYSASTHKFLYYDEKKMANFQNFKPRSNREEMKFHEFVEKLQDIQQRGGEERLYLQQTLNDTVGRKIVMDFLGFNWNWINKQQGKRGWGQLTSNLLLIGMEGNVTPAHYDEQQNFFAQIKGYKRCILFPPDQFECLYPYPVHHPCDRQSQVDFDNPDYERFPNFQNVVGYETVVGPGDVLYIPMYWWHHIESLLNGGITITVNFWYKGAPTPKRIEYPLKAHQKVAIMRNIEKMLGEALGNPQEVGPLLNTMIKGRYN
UniProt P17066, whole entry, looked up: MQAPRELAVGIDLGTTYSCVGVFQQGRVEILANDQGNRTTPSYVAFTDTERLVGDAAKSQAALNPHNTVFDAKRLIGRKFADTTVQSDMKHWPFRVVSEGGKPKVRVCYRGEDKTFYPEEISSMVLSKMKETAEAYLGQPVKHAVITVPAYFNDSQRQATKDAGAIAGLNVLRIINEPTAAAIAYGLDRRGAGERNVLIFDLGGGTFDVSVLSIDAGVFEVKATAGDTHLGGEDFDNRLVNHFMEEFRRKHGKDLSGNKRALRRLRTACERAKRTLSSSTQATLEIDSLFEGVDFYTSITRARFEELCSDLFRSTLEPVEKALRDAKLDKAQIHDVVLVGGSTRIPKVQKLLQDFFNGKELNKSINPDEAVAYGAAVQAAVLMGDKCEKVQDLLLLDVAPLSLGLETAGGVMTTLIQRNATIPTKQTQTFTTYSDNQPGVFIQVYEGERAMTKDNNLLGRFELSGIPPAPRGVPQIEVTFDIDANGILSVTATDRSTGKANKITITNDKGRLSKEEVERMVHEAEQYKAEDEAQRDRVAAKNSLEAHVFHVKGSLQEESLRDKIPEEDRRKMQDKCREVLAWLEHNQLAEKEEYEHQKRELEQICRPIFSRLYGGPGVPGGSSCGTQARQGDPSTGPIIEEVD
UniProt P00492: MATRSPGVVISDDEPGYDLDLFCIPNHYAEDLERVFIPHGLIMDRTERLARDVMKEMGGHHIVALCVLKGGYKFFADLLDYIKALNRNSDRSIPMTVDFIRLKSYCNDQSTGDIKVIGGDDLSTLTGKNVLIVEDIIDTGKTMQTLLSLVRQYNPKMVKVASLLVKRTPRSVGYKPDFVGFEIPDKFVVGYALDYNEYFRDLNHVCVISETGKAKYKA
UniProt P17482: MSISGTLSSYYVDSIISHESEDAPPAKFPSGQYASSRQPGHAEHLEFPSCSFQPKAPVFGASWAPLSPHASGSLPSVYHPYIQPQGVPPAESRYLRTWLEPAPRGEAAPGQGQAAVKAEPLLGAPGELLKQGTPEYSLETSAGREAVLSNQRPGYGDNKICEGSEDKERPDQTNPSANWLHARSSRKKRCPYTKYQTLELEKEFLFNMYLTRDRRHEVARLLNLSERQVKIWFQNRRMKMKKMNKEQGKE
UniProt Q92506: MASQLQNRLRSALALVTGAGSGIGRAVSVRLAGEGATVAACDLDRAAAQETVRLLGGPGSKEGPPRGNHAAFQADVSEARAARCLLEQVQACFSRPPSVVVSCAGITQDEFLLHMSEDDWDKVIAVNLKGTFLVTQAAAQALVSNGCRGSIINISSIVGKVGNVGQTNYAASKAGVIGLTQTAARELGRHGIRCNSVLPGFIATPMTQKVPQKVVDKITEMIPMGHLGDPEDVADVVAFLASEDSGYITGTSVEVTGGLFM
UniProt P22626: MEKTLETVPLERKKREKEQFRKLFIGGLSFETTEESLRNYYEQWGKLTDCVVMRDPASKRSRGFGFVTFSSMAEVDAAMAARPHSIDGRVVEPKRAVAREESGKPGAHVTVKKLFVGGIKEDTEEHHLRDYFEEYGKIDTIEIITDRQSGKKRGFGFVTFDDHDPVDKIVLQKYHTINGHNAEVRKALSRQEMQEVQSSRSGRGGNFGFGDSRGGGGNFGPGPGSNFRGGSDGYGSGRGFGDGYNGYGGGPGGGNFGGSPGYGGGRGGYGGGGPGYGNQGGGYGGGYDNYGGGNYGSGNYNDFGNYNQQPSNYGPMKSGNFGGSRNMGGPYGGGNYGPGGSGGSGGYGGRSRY
UniProt P05114: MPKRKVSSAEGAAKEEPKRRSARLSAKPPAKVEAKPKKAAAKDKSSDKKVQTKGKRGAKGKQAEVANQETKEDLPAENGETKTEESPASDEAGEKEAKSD
UniProt O15347: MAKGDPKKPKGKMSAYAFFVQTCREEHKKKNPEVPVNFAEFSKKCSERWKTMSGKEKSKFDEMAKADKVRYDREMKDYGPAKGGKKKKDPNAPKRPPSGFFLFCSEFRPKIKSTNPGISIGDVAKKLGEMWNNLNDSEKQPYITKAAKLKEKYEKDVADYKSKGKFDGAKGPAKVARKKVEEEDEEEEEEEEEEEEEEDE
UniProt Q8IX15: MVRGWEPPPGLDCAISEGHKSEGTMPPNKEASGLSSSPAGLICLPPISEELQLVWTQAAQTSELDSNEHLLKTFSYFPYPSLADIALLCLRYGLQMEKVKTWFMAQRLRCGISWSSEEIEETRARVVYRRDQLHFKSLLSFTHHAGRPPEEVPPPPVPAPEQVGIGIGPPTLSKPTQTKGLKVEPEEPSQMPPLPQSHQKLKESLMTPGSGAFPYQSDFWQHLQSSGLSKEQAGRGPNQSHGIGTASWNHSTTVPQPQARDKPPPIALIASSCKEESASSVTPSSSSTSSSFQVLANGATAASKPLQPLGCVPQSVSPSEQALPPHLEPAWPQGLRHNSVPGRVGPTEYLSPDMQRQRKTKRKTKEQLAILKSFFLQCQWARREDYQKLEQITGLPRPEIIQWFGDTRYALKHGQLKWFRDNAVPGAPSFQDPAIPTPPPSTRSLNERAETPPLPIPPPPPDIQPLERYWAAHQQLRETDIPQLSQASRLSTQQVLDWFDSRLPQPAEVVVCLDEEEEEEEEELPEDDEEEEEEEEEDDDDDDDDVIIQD
UniProt Q96JB3: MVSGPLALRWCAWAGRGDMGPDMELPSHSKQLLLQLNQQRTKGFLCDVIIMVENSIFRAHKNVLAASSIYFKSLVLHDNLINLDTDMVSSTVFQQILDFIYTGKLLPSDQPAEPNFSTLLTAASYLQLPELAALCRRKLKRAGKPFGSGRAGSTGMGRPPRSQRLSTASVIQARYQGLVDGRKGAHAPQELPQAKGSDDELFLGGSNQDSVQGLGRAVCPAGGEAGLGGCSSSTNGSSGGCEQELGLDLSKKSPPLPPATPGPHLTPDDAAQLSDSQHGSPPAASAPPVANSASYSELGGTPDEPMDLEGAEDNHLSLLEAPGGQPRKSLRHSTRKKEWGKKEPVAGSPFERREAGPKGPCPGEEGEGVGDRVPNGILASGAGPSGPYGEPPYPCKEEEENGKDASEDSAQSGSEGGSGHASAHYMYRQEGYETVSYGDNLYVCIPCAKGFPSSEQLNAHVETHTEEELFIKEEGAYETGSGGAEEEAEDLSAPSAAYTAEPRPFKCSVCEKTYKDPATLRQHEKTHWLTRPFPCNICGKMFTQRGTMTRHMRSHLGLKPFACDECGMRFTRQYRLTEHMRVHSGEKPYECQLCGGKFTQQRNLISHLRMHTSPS
UniProt P31943: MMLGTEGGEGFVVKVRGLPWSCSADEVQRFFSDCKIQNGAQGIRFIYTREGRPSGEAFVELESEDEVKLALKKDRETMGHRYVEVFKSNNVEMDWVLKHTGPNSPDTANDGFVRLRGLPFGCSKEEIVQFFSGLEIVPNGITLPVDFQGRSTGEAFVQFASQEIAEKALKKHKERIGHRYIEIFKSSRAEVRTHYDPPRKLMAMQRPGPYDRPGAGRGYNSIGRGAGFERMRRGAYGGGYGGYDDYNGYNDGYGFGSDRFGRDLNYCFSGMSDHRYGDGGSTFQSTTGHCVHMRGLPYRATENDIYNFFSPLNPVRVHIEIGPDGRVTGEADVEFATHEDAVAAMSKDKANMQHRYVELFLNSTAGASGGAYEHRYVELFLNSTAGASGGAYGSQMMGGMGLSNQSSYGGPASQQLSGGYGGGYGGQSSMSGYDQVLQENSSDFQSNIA
UniProt Q53FT3: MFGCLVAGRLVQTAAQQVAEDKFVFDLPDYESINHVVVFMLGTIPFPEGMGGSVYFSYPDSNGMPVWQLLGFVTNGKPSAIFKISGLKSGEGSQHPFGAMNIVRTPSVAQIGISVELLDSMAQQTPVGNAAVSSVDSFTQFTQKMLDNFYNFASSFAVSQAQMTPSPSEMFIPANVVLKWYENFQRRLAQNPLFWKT
UniProt P07686: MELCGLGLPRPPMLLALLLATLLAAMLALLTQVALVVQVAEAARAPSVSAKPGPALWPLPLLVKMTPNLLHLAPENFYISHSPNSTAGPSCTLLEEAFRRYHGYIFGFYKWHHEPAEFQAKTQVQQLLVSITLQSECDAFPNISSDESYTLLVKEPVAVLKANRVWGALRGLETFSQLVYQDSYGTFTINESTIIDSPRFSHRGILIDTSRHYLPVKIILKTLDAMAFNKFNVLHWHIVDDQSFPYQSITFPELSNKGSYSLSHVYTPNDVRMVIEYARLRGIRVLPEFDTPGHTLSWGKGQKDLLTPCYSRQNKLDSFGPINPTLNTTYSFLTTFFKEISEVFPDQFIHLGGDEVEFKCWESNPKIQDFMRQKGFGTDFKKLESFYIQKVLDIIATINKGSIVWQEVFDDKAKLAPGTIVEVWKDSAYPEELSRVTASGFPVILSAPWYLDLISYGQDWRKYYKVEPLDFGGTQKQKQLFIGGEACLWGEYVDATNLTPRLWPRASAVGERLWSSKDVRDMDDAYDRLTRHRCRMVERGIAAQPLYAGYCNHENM

Tests used:
Test in all cases: log2 fold change, soluble protein after heating vs DMSO (PISA); higher = thermal stabilisation; K562 lysate, 10 uM; active = over 0.2 and 3.5 SD of the protein, either way, in both replicates (recomputed)
ibrutinib = compound: C=CC(=O)N1CCC[C@@H](n2nc(-c3ccc(Oc4ccccc4)cc3)c3c(N)ncnc32)C1 [ibrutinib]
In short: (§1)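 Log-two fold change in thermal stability relative to solvent controls is reported from duplicates. For each sample, crude K562 extract from dounce-homogenised pellets in PBS pH 7.4 with 1 mM MgCl2, at 1 mg/mL protein, was treated with 10 μM compound for 30 min. Aliquots heated for 3 min across 48°C-58°C were pooled, brought to 0.5% NP-40 at 4°C and cleared at 21,000xg for 90 min. The supernatant was quantified by TMTpro 16plex LC-MS/MS with channel sums equalised.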

[1] = compound: CC(=O)c1cnc2ccc(-c3cc(Cl)c(O)c(Cl)c3)nc2c1N[C@H]1CC[C@H](CN(C)C)CC1
In short: as §1

ralimetinib = compound: CC(C)(C)Cn1c(N)nc2ccc(-c3[nH]c(C(C)(C)C)nc3-c3ccc(F)cc3)nc21 [ralimetinib]
In short: as §1

[2] = compound: CC(C)(O)CC(=O)NCCn1ccc2ncnc(Nc3ccc(Oc4cccc(C(F)(F)F)c4)c(Cl)c3)c21
In short: as §1

[3] = compound: CC(C)C1=C2N=C(C=C(N2N=C1)NCC3=CC=CC=C3)NCCCCCCN
In short: as §1

[4] = compound: CC1=C(C(CC(=O)N1)C2=CC=C(C=C2)C(F)(F)F)C(=O)NC3=C(C=C4C(=C3)C=NN4)F
In short: as §1

[5] = compound: CC1=C(C2=C(C=C1)C(=O)C3=CC=CC=C3N2CCCN)C
In short: as §1

[6] = compound: CC1=C(C=C(C=C1)NC(=O)C2=CC(=CC=C2)C(C)(C)C#N)NC3=CC4=C(C=C3)N=CN(C4=O)C
In short: as §1

[7] = compound: CC1=C(C=C(C=C1)NC(=O)C2=CC(=CC=C2)N(C)C)NC(=O)C3=CC=C(C=C3)O
In short: as §1

[8] = compound: CC1=CC=C(C=C1)SC2=C3C=C(SC3=CN=C2)C(=O)N
In short: as §1

vemurafenib = compound: CCCS(=O)(=O)Nc1ccc(F)c(C(=O)c2c[nH]c3ncc(-c4ccc(Cl)cc4)cc23)c1F [vemurafenib]
In short: as §1

[9] = compound: CCCS(=O)(=O)Nc1ccc(F)c(C(=O)c2c[nH]c3ncc(Cl)cc23)c1F
In short: as §1

barasertib = compound: CCN(CCCOc1ccc2c(Nc3cc(CC(=O)Nc4cccc(F)c4)[nH]n3)ncnc2c1)CCOP(=O)(O)O [barasertib]
In short: as §1

[10] = compound: CC[C@@H]1C(=O)N(C)c2cnc(Nc3ccc(C(=O)NC4CCN(C)CC4)cc3OC)nc2N1C1CCCC1
In short: as §1

volasertib = compound: CC[C@@H]1C(=O)N(C)c2cnc(Nc3ccc(C(=O)N[C@H]4CC[C@H](N5CCN(CC6CC6)CC5)CC4)cc3OC)nc2N1C(C)C [volasertib]
In short: as §1

[11] = compound: CCn1c(C(=O)N(C2CC2)C2CC2)cc2c3c(ncn3C)c(Nc3cc(C)n(C)n3)nc21
In short: as §1

[12] = compound: CCn1cc(-c2ccnc3[nH]c(-c4cccc(CN(C)C)c4)cc23)c(-c2ccc(NC(=O)N(C)C)cc2)n1
In short: as §1

[13] = compound: CN1CCC(CNc2ccc3ncc(-c4cccc(OC(F)(F)F)c4)n3n2)CC1
In short: as §1

saracatinib = compound: CN1CCN(CCOc2cc(OC3CCOCC3)c3c(Nc4c(Cl)ccc5c4OCO5)ncnc3c2)CC1 [saracatinib]
In short: as §1

sotrastaurin = compound: CN1CCN(c2nc(C3=C(c4c[nH]c5ccccc45)C(=O)NC3=O)c3ccccc3n2)CC1 [sotrastaurin]
In short: as §1

Measured: log2 fold change

HSPA4L (UniProt O95757)
inactive: ibrutinib -0.003 | [1] 0.004 | ralimetinib 0.005 | [2] -0.019 | [3] 0.024 | [4] -0.034 | [5] -0.013 | [6] -0.028 | [7] -0.005 | [8] 0.022 | vemurafenib 0.003 | [9] 0.007 | barasertib 0.011 | [10] -0.014 | volasertib -0.039 | [11] -0.003 | [12] -0.017 | [13] 0.028 | saracatinib 0.011 | sotrastaurin 0.005

HMGN2 (UniProt P05204)
inactive: ibrutinib -0.045 | [1] 0.021 | ralimetinib -0.034 | [2] -0.017 | [3] 0 | [4] -0.056 | [5] -0.014 | [6] -0.045 | [7] -0.021 | [8] -0.017 | vemurafenib 0.024 | [9] -0.015 | barasertib -0.037 | [10] 0.036 | volasertib 0.023 | [11] -0.033 | [12] 0.07 | [13] -0.007 | saracatinib -0.016 | sotrastaurin 0.061

HIF1AN (UniProt Q9NWT6)
inactive: ibrutinib 0.034 | [1] 0.006 | ralimetinib 0.018 | [2] 0.011 | [3] 0.016 | [4] 0.023 | [5] 0.026 | [6] -0.11 | [7] -0.072 | [8] -0.07 | vemurafenib 0.015 | [9] 0.059 | barasertib 0.152 | [10] -0.048 | volasertib 0.015 | [11] 0.053 | [12] -0.053 | [13] 0.104 | saracatinib 0.029 | sotrastaurin 0.062

HSPA6 (UniProt P17066)
inactive: ibrutinib -0.027 | [1] -0.027 | ralimetinib -0.041 | [2] -0.012 | [3] 0.018 | [4] -0.036 | [5] 0.16 | [6] 0.027 | [7] 0.014 | [8] -0.003 | vemurafenib -0.006 | [9] 0.017 | barasertib -0.03 | [10] 0.05 | volasertib -0.06 | [11] -0.053 | [12] -0.085 | [13] 0.051 | saracatinib -0.712 | sotrastaurin 0.027

HPRT1 (UniProt P00492)
inactive: ibrutinib 0.006 | [1] 0.025 | ralimetinib 0.009 | [2] 0.038 | [3] -0.035 | [4] 0.004 | [5] 0.009 | [6] -0.015 | [7] 0.018 | [8] 0.005 | vemurafenib 0.004 | [9] 0.009 | barasertib -0.064 | [10] 0.02 | volasertib 0.014 | [11] 0.002 | [12] -0.056 | [13] 0.032 | saracatinib -0.008 | sotrastaurin -0.016

HOXB9 (UniProt P17482)
inactive: ibrutinib 0.21 | [1] 0.038 | ralimetinib 0.041 | [2] 0.138 | [3] 0.084 | [4] -0.011 | [5] -0.08 | [6] 0.274 | [7] -0.014 | [8] -0.004 | vemurafenib -0.015 | [9] 0 | barasertib 0.033 | [10] 0.064 | volasertib -0.027 | [11] 0.195 | [12] -0.015 | [13] 0.01 | saracatinib -0.028 | sotrastaurin -0.058

HSD17B8 (UniProt Q92506)
inactive: ibrutinib 0.025 | [1] 0.037 | ralimetinib -0.01 | [2] -0.047 | [3] -0.028 | [4] -0.056 | [5] -0.016 | [6] -0.013 | [7] -0.09 | [8] -0.002 | vemurafenib -0.024 | [9] -0.014 | barasertib -0.054 | [10] -0.074 | volasertib 0.059 | [11] 0.012 | [12] -0.121 | [13] 0.038 | saracatinib 0.003 | sotrastaurin 0.039

HNRNPA2B1 (UniProt P22626)
inactive: ibrutinib 0.012 | [1] -0.123 | ralimetinib -0.011 | [2] -0.013 | [3] -0.003 | [4] -0.01 | [5] 0.002 | [6] -0.014 | [7] -0.013 | [8] -0.008 | vemurafenib 0.006 | [9] 0.024 | barasertib -0.036 | [10] 0.006 | volasertib -0.003 | [11] -0.009 | [12] -0.054 | [13] 0.021 | saracatinib -0.003 | sotrastaurin 0.009

HMGN1 (UniProt P05114)
inactive: ibrutinib -0.061 | [1] 0.008 | ralimetinib -0.007 | [2] 0.008 | [3] 0.006 | [4] 0.025 | [5] 0.004 | [6] -0.032 | [7] 0.03 | [8] 0.009 | vemurafenib 0.033 | [9] -0.037 | barasertib -0.084 | [10] 0.057 | volasertib 0.031 | [11] -0.017 | [12] 0.144 | [13] -0.013 | saracatinib -0.011 | sotrastaurin 0.02

HMGB3 (UniProt O15347)
inactive: ibrutinib -0.01 | [1] 0.032 | ralimetinib 0 | [2] 0.002 | [3] 0.037 | [4] -0.025 | [5] -0.009 | [6] 0.046 | [7] 0.016 | [8] 0.003 | vemurafenib 0.014 | [9] 0.027 | barasertib -0.098 | [10] 0.113 | volasertib 0.026 | [11] -0.023 | [12] 0.049 | [13] -0.073 | saracatinib 0 | sotrastaurin -0.033

HOMEZ isoform 3 (UniProt Q8IX15)
inactive: ibrutinib 0.011 | [1] -0.118 | ralimetinib 0.068 | [2] -0.067 | [3] 0.058 | [4] 0.044 | [5] -0.042 | [6] 0.016 | [7] -0.015 | [8] -0.007 | vemurafenib 0.126 | [9] 0.069 | barasertib 0.095 | [10] 0.033 | volasertib -0.049 | [11] 0.117 | [12] -0.095 | [13] 0.244 | saracatinib 0.032 | sotrastaurin -0.011

Two entries picked at random from the list so far, as already listed:
HMGB3 (UniProt O15347)
inactive: ibrutinib -0.01 | [1] 0.032 | ralimetinib 0 | [2] 0.002 | [3] 0.037 | [4] -0.025 | [5] -0.009 | [6] 0.046 | [7] 0.016 | [8] 0.003 | vemurafenib 0.014 | [9] 0.027 | barasertib -0.098 | [10] 0.113 | volasertib 0.026 | [11] -0.023 | [12] 0.049 | [13] -0.073 | saracatinib 0 | sotrastaurin -0.033

HMGN1 (UniProt P05114)
inactive: ibrutinib -0.061 | [1] 0.008 | ralimetinib -0.007 | [2] 0.008 | [3] 0.006 | [4] 0.025 | [5] 0.004 | [6] -0.032 | [7] 0.03 | [8] 0.009 | vemurafenib 0.033 | [9] -0.037 | barasertib -0.084 | [10] 0.057 | volasertib 0.031 | [11] -0.017 | [12] 0.144 | [13] -0.013 | saracatinib -0.011 | sotrastaurin 0.02

The listing continues:

HIC2 (UniProt Q96JB3)
inactive: ibrutinib 0.073 | [1] -0.027 | ralimetinib 0.001 | [2] -0.011 | [3] 0.06 | [4] -0.031 | [5] -0.029 | [6] 0.02 | [7] -0.006 | [8] -0.037 | vemurafenib 0.043 | [9] 0.023 | barasertib -0.063 | [10] 0.03 | volasertib 0.006 | [11] -0.022 | [12] -0.103 | [13] 0.019 | saracatinib -0.067 | sotrastaurin -0.043

HNRNPH1 (UniProt P31943)
inactive: ibrutinib 0 | [1] -0.026 | ralimetinib -0.002 | [2] -0.011 | [3] 0.019 | [4] 0.02 | [5] 0.018 | [6] 0.028 | [7] -0.001 | [8] -0.002 | vemurafenib 0.009 | [9] 0.034 | barasertib -0.008 | [10] 0.078 | volasertib -0.085 | [11] 0.027 | [12] -0.089 | [13] -0.028 | saracatinib -0.005 | sotrastaurin -0.044

HIKESHI (UniProt Q53FT3)
inactive: ibrutinib 0.054 | [1] -0.002 | ralimetinib 0.087 | [2] -0.012 | [3] -0.039 | [4] -0.003 | [5] -0.005 | [6] -0.029 | [7] 0.003 | [8] 0.034 | vemurafenib -0.146 | [9] 0.004 | barasertib 0.065 | [10] 0.003 | volasertib 0.009 | [11] 0.083 | [12] -0.12 | [13] -0.005 | saracatinib 0 | sotrastaurin -0.002

HEXB (UniProt P07686)
inactive: ibrutinib -0.01 | [1] 0.002 | ralimetinib 0.001 | [2] 0.006 | [3] -0.003 | [4] -0.013 | [5] 0 | [6] -0.028 | [7] 0 | [8] -0.005 | vemurafenib -0.014 | [9] -0.002 | barasertib -0.006 | [10] -0.01 | volasertib -0.002 | [11] 0.026 | [12] 0.018 | [13] -0.029 | saracatinib 0.008 | sotrastaurin 0.004
